These are yes or no findings as the source states them, for the method shown. In cells and extracts the contact can be indirect. Some binding calls cover weakened binding; strength is not graded here.

Amino acid sequences for entries named in this document (tags omitted).
UniProt P13640: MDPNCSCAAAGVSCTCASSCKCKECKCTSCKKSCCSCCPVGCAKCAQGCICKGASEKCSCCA

The target in assay [1] is MT1G-flag (expressed in HepG2 cells) (human) (UniProt P13640). Briefly: co-IP; endogenous assay: HepG2 cells transfected with MT1G-flag plasmid; lysates immunoprecipitated with anti-flag antibody, blotted with anti-p53 and anti-flag; 4 °C.
Assay [2] deals with MT1G-flag (expressed in 293T cells) (human) (UniProt P13640). Briefly: co-IP; exogeneous assay: 293T cells transfected with MT1G-flag and p53-Myc plasmids; lysates immunoprecipitated with anti-flag antibody, blotted with anti-Myc and anti-flag; 4 °C.

Take “p53 (endogenous, HepG2 cells) (from UniProt P04637 1-393)”: in assay [1], the binding entry was “binds”.
As for “p53-Myc (wild-type p53, expressed in 293T cells) (from UniProt P04637 1-393)”, in assay [2], the binding entry is “binds”.
